From paper PMC9454738 come the findings set out here.

Chains of the proteins cited; added tags and fusions are not shown. Lines headed by an entry give the natural chain unless they say otherwise; changes in a name come on top.
UniProt P08151: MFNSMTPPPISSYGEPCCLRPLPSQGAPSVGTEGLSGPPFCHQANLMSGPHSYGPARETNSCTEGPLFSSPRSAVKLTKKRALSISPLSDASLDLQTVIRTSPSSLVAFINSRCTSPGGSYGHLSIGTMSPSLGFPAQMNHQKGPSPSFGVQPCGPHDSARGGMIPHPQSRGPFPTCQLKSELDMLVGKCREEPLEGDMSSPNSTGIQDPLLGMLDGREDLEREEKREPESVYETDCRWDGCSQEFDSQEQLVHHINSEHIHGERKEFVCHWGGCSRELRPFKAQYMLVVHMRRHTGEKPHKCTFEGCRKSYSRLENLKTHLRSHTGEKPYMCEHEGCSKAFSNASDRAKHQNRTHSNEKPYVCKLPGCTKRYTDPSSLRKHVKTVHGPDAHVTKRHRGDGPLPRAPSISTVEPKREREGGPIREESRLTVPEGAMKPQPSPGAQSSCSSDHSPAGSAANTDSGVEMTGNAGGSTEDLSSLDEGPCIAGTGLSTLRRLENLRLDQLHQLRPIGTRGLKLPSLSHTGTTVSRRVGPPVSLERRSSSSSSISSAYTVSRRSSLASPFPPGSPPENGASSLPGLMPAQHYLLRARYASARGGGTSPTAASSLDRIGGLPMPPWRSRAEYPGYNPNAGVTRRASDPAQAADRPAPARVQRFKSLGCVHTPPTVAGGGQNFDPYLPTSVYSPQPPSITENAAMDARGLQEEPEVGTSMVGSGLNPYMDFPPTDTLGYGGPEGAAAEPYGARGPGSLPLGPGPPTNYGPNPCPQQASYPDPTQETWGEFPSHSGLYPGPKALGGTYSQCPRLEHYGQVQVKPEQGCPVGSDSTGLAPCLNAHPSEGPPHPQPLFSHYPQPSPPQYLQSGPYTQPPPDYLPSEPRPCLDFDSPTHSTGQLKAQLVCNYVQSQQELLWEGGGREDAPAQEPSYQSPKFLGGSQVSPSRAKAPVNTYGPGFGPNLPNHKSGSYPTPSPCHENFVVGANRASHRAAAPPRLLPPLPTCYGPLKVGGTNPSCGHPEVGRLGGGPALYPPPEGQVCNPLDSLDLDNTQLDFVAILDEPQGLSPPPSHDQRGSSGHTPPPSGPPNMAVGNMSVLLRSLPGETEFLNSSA
UniProt P40763: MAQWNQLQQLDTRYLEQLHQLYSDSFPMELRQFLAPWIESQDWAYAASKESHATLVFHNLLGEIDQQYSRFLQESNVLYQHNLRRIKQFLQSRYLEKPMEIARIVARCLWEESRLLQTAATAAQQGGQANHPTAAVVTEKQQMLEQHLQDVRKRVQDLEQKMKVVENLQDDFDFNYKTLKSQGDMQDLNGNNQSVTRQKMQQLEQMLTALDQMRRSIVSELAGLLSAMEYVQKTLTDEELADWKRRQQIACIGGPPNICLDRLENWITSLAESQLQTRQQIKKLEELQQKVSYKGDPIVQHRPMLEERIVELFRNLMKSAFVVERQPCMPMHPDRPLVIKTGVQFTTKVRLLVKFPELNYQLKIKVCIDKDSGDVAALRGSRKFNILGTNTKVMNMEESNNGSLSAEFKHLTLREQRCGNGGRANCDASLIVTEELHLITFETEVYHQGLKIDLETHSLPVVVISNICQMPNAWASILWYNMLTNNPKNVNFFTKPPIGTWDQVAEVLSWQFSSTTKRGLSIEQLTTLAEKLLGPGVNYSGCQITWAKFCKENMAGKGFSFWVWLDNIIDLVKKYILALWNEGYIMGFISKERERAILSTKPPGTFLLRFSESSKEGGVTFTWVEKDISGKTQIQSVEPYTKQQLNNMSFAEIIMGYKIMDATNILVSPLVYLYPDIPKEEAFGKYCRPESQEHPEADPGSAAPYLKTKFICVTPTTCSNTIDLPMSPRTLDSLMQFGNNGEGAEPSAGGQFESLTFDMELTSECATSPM

What all share (test): EMSA
In general terms: A gel shift assay detects complexes by their altered migration in electrophoresis.

In one data set the target is GLI1 (UniProt P08151). The settings on record: 50 mM NaCl, 200 mM KCl, 5 mM MgCl2, 10 mM EDTA, 5 mM DTT, 250 ug/mL BSA, 25% glycerol, 50 ng/uL poly dI-dC, commercial protein, label: 5' 6-FAM on both strands.
Data set [1] relates to N-tGLI1 (N-terminal truncated GLI1). The settings on record: 50 mM NaCl, 200 mM KCl, 5 mM MgCl2, 10 mM EDTA, 5 mM DTT, 250 ug/mL BSA, 25% glycerol, 50 ng/uL poly dI-dC, recombinant protein, protein details: MBP tag cleaved with HRV 3C protease, label: 5' 6-FAM on both strands.
Another data set has as its target STAT3 (UniProt P40763). To be noted: no drug; 50 mM NaCl, 200 mM KCl, 5 mM MgCl2, 10 mM EDTA, 5 mM DTT, 250 ug/mL BSA, 25% glycerol; 50 ng/uL poly dI-dC; commercial protein; label: 5' 6-FAM on both strands.

Construct, isoform or probe ends are uncertain for at least one entry. For part of these data: No signal at the amounts used counts as a negative. For part of these data: Weaker means in comparison with the reference protein, sequence or condition of that experiment.

As for “CGAAGAGACCACCCAGGTAGCT (double strand) [GLI1/tGLI1 consensus probe]”, the binding result with GLI1 (100 uM KCZ (ketoconazole), binding not reduced) is recorded as “binds”; in the data set with GLI1 (100 uM KCZ-7, binding not reduced), “binds”; with GLI1 (no drug), “binds”; in data set [1] (100 uM KCZ (ketoconazole)), “binds more weakly”; in data set [1] (100 uM KCZ-7), “binds more weakly”; with STAT3, “no binding”.
